# In patent US20260284208A1, “SYSTEM” (Oxford University Innovation Limited, priority 2023, published 2026):
# This continues a long series; more values of the same kind are listed elsewhere.
# Tested on: library of 8,380 IKZF3 degrons (ZF-eGFP/mCherry reporter) in Jurkat cells
# Assay: Pooled library screen (FACS, NGS, limma voom LogFC of positive vs negative read counts)
# Type: cell-based, human
# Experimental: A library of 8,380 IKZF3 degrons was cloned into pLVX-Sprout to create the eGFP/mCherry protein degradation reporter plasmid pool. A lentivirus pool was then generated using the Lenti-X lentiviral vector production method.
# Jurkat cells were transduced at a multiplicity of infection of <0.3 with the lentivirus vector library in order to maximise the number of cells with a single integration. Transductions were carried out in 6 well TC-treated cell culture dishes (Falcon) with 3×10^6 cells per well. Cells were incubated for 2 days at 37° C. and 5% CO2 before the supernatant was removed and replaced with fresh media. 6 days post-transduction, mCherry+ cells were isolated via FACS using the FACS Aria Fusion (BD) in a buffer containing PBS (Gibco), 2 mM EDTA (Gibco), 25 mM HEPES (Sigma) and 1% BSA (Sigma). 8 days later, cells were treated with DMSO or a thalidomide analog for 18 hours at 37° C. and 5% CO2. mCherry+GFPlow and NOT(mCherry+GFPlow) cells were sorted by FACS using the FACS Aria Fusion (BD). DMSO treated cells were used to set the mCherry+GFPlow gate and dead cells were excluded from sorting by staining cells with 1 μg/mL DAPI (ThermoFisher). gDNA was isolated using the Maxwell RSC 48 (Promega). gDNA from cells that were unsorted and untreated were also isolated to determine the library representation on the day of compound treatment. Throughout the screen >600× coverage of the library was maintained. 3 biological replicates were carried out with a new transduction taking place each time.
# A two-step PCR was used where the first PCR (PCR1) amplified the integrated degron sequence from gDNA and the second PCR (PCR2) added Illumina adaptors and barcodes to permit multiplexing. See Supp F for PCR1 and PCR2 primers. Q5 Hot Start High-Fidelity 2× Master Mix (New England Biolabs) was used for both PCRs. Sufficient gDNA was amplified in PCR1 in order to maintain >600× coverage and amplicons were purified using solid phase reversible immobilization (SPRI) beads (Beckman Coulter). Purified PCR1 products were analysed on the Tapestation 4200 (Agilent) to confirm purity prior to proceeding to PCR2. Sufficient PCR1 product was amplified in PCR2 in order to maintain >600× coverage and amplicons were run on a 2% agarose TAE gel. Target bands were excised and purified using the NucleoSpin Gel and PCR Clean-up Kit (Machery Nagel). Amplicons were analysed on the Tapestation 4200 and quantified using Qubit dsDNA HS kit (ThermoFisher). PCR products were pooled and sequenced as paired-reads on the NovaSeq (Illumina) using a SP2 200 cycles kit (Illumina).
# Count distributions, percentage of read mapping, library coverage and replicate correlation per sample were assessed for QC purposes.
# To carry out the library screen, we used the same plasmid construct as in our earlier flow cytometry assays, but pooling all 8,380 mutants together into one Jurkat population, ensuring a copy number of one plasmid per cell (FIG. 4B). […] These GFP-negative cells were then separated from the remaining GFP-positive population using fluorescence activated cell sorting (FACS). These two populations were then sequenced and the relative abundance of every mutant in both populations compared to provide a log FC value for each mutant sequence. This value indicated how frequently a sequence is observed in the GFP-negative population relative to the GFP-positive population, and therefore how effective a degron it is for that particular IMID compound.
compound,measurement,setting,value
O=C1CCC(N2C(=O)c3ccc(N4CCOCC4)cc3C2=O)C(=O)N1 (stereo not drawn) [B03],B03_logFC,"Degron-ID 6746, SEQ ID NO 4417, 46L_47S_49P_50I_52G_53F_54H_55C_67L_",2.022
same,B03_logFC,"Degron-ID 6753, SEQ ID NO 4315, 46L_47S_49P_50I_52G_53F_54Q_55C_67L_",2.184
same,B03_logFC,"Degron-ID 6755, SEQ ID NO 3780, 46L_47S_49P_50I_52G_53F_54S_55C_67L_",3.045
same,B03_logFC,"Degron-ID 6756, SEQ ID NO 3909, 46L_47S_49P_50I_52G_53F_54T_55C_67L",2.834
same,B03_logFC,"Degron-ID 6760, SEQ ID NO 3748, 46L_47T_49P_50I_52G_53F_54A_55C_67L_",3.125
same,B03_logFC,"Degron-ID 6771, SEQ ID NO 4404, 46L_47T_49P_50I_52G_53F_54N_55C_67L_",2.035
same,B03_logFC,"Degron-ID 6776, SEQ ID NO 3663, 46L_47T_49P_50I_52G_53F_54T_55C_67L_",3.31
same,B03_logFC,"Degron-ID 6780, SEQ ID NO 3686, 46L_47V_49P_50I_52G_53F_54A_55F_67L_",3.253
same,B03_logFC,"Degron-ID 6783, SEQ ID NO 4253, 46L_47V_49P_50I_52G_53F_54E_55C_67L_",2.29
same,B03_logFC,"Degron-ID 6785, SEQ ID NO 3716, 46L_47V_49P_50I_52G_53F_54G_55C_67L_",3.179
same,B03_logFC,"Degron-ID 6786, SEQ ID NO 4432, 46L_47V_49P_50I_52G_53F_54H_55C_67L_",2.001
same,B03_logFC,"Degron-ID 6788, SEQ ID NO 4346, 46L_47V_49P_50I_52G_53F_54K_55C_67L_",2.131
same,B03_logFC,"Degron-ID 6790, SEQ ID NO 4337, 46L_47V_49P_50I_52G_53F_54M_55C_67L_",2.149
same,B03_logFC,"Degron-ID 6794, SEQ ID NO 3800, 46L_47V_49P_50I_52G_53F_54R_55C_67L_",3.008
same,B03_logFC,"Degron-ID 6800, SEQ ID NO 3661, 46L_47W_49P_50I_52G_53F_54A_55C_67L_",3.322
same,B03_logFC,"Degron-ID 6804, SEQ ID NO 3781, 46L_47W_49P_50I_52G_53F_54F_55C_67L_",3.044
same,B03_logFC,"Degron-ID 6808, SEQ ID NO 3715, 46L_47W_49P_50I_52G_53F_54K_55C_67L_",3.179
same,B03_logFC,"Degron-ID 6809, SEQ ID NO 4319, 46L_47W_49P_50I_52G_53F_54L_55C_67L_",2.176
same,B03_logFC,"Degron-ID 6817, SEQ ID NO 3736, 46L_47W_49P_50I_52G_53F_54V_55C_67L_",3.148
same,B03_logFC,"Degron-ID 6818, SEQ ID NO 4422, 46L_47W_49P_50I_52G_53F_54W_55C_67L_",2.016
same,B03_logFC,"Degron-ID 6819, SEQ ID NO 3696, 46L_47W_49P_50I_52G_53F_54Y_55C_67L_",3.231
same,B03_logFC,"Degron-ID 6820, SEQ ID NO 3657, 46L_47Y_49P_50I_52G_53F_54A_55C_67L_",3.332
same,B03_logFC,"Degron-ID 6824, SEQ ID NO 3919, 46L_47Y_49P_50I_52G_53F_54F_55C_67L",2.815
same,B03_logFC,"Degron-ID 6825, SEQ ID NO 3824, 46L_47Y_49P_50I_52G_53F_54G_55C_67L_",2.963
same,B03_logFC,"Degron-ID 6827, SEQ ID NO 3865, 46L_47Y_49P_50I_52G_53F_54I_55C_67L",2.895
same,B03_logFC,"Degron-ID 6828, SEQ ID NO 3807, 46L_47Y_49P_50I_52G_53F_54K_55C_67L_",2.998
same,B03_logFC,"Degron-ID 6830, SEQ ID NO 3853, 46L_47Y_49P_50I_52G_53F_54M_55C_67L",2.917
same,B03_logFC,"Degron-ID 6831, SEQ ID NO 3839, 46L_47Y_49P_50I_52G_53F_54N_55C_67L_",2.946
same,B03_logFC,"Degron-ID 6838, SEQ ID NO 4333, 46L_47Y_49P_50I_52G_53F_54W_55C_67L_",2.154
same,B03_logFC,"Degron-ID 6839, SEQ ID NO 3760, 46L_47Y_49P_50I_52G_53F_54Y_55C_67L_",3.11
same,B03_logFC,"Degron-ID 7613, SEQ ID NO 4385, 46L_47A_49E_50I_52G_53F_54Q_55C_67L_",2.061
same,B03_logFC,"Degron-ID 7614, SEQ ID NO 3929, 46L_47A_49E_50I_52G_53F_54R_55C_67L",2.792
same,B03_logFC,"Degron-ID 7615, SEQ ID NO 3827, 46L_47A_49E_50I_52G_53F_54S_55C_67L_",2.958
same,B03_logFC,"Degron-ID 7616, SEQ ID NO 3668, 46L_47A_49E_50I_52G_53F_54T_55C_67L_",3.297
same,B03_logFC,"Degron-ID 7636, SEQ ID NO 3941, 46L_47C_49E_50I_52G_53F_54T_55C_67L",2.777
same,B03_logFC,"Degron-ID 7680, SEQ ID NO 3796, 46L_47F_49E_50I_52G_53F_54A_55C_67L_",3.019
same,B03_logFC,"Degron-ID 7683, SEQ ID NO 4316, 46L_47F_49E_50I_52G_53F_54E_55C_67L_",2.182
same,B03_logFC,"Degron-ID 7684, SEQ ID NO 4353, 46L_47F_49E_50I_52G_53F_54F_55C_67L_",2.118
same,B03_logFC,"Degron-ID 7686, SEQ ID NO 3751, 46L_47F_49E_50I_52G_53F_54H_55C_67L_",3.123
same,B03_logFC,"Degron-ID 7687, SEQ ID NO 3782, 46L_47F_49E_50I_52G_53F_54I_55C_67L_",3.042
same,B03_logFC,"Degron-ID 7688, SEQ ID NO 3731, 46L_47F_49E_50I_52G_53F_54K_55C_67L_",3.154
same,B03_logFC,"Degron-ID 7690, SEQ ID NO 3755, 46L_47F_49E_50I_52G_53F_54M_55C_67L_",3.117
